Results from patent US20080038840A1, “Fluorescent Method And Compounds To Monitor Protein-Lipid Binding” (EUROPAEISCHES LABORATORIUM FUER MOLEKULARBIOLOGIE, priority 2004, published 2008).
At least one structure is not confirmed: it was looked up by name or label, or the drawing left a doubt.

Sequences of proteins named here, by UniProt entry; tags and fusion partners are left off. Residues count along the entry.
UniProt P02769, 25-607: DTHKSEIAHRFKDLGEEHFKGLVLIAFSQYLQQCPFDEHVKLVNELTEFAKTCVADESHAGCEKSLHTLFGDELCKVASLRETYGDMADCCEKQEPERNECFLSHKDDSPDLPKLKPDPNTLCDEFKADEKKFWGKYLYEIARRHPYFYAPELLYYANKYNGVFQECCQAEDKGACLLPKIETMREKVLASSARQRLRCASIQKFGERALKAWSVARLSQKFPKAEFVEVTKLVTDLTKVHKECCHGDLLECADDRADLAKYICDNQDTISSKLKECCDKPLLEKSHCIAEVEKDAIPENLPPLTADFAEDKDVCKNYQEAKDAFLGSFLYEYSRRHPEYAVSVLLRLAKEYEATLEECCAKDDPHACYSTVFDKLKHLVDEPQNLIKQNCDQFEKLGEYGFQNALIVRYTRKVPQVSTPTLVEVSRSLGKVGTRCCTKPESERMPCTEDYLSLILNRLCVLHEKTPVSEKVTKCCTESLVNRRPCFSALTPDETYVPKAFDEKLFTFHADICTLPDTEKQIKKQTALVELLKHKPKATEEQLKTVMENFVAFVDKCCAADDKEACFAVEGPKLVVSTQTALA

Assays:
[1] = target: bovine serum albumin (BSA) (Bos taurus, UniProt P02769); assay: Titration of fluorescent dye with bovine serum albumin (BSA); format: binding; conditions: for wavelength of maximal emission intensity: FIG. 1a/1b
Description: In a preferred embodiment of the invention, the assay for identifying lipid binding sites of proteins using the compounds according to formula I as defined above, comprises the steps of • a) dissolving a compound according to formula I as defined above in an aqueous solvent, • b) adding the protein to be tested for containing a lipid binding site, preferably in various concentrations, • c) measuring the intensity of fluorescence emission at the wavelength of maximal emission of the fluorescent dye.
(§1) The fluorescent dye will bind to any lipid-binding site of the protein, and the resulting increase in the hydrophobicity surrounding of the dye will result in an increase in the intensity of the fluorescence and a shift in the emission to a shorter wavelength. The emission-wavelength of a compound according to formula I in a hydrophobic surrounding can be determined in a non-aqueous solution such as methanol.
For determining the submaximal concentration of dye binding to the protein, the latter was titrated until no further fluorescence increase at 620 nm could be detected.

[2] = Excitation and emission values of the fluorescent dyes in solvent; format: physicochemical
Protocol: Some exemplary fluorescent dyes according to the invention together with values for excitation and emission are included in table 1. […] The excitation and emission values of the fluorescent dyes were measured in methanol, which simulates a protein-environment, thus yielding a shift of the emission to shorter wavelengths. For comparison, excitation and emission values for compound 10 were also measured in HEPES buffer (i.e. under initial, aqueous assay conditions). In this aqueous environment, the excitation is 620 nm and the emission is 688 nm compared to an emission at 662 nm in methanol.
as §1

[3] = in HEPES buffer (aqueous assay conditions)

For `CCN(CC)c1ccc2nc3c4cc(OCCCC(=O)O)ccc4c(=O)c(Br)c-3oc2c1` [compound 10, 4-(6-Bromo-9-diethylamino-5-oxo-5H-benzo[a]phenoxazin-2-yloxy)-butyric acid], the “change of fluorescence on titration with BSA” value ([1]; FIG. 1a (dye 0.25 μM) / FIG. 1b (dye 3 μM)) was “shift in the emission to a shorter wavelength and an increase in the intensity of the fluorescence”, the “wavelength of maximal emission intensity” value ([1]; in the absence of BSA) was 670 nm and the “wavelength of maximal emission intensity” value ([1]; in the presence of BSA) was 642 nm. It also gave an Emission [2, 3] of 688 nm, an excitation [2, 3] of 620 nm and an Emission ([2]; measured in methanol) of 662 nm. The excitation ([2]; measured in methanol) was 549 nm and the Emission ([2]; measured in methanol, listed as drawing 12) was 642 nm.
